Reference: US20240050432A1 (Infinity Pharmaceuticals, Inc., priority 2020, published 2024)
The name of at least one read-out is uncertain.

Assay: Human dose and half-life predicted from non-human animal studies
Format: in vivo
Settings: based on non-human animal studies

C[C@H](NC(=O)c1c(N)nn2cccnc12)c1cc2cccc(C#Cc3cnn(C)c3)c2c(=O)n1-c1ccccc1 [Compound 1, eganelisib]
predicted human dose to achieve exposure at the IC90 for PI3K-γ: approximately 2 mg
